Measured values as given in US20210085756A1, “SUPERACTIVE MUTANT THYMIDINE KINASE FOR USE IN CANCER THERAPY” (MEDIZINISCHE UNIVERSITÄT WIEN, priority 2017, published 2021).

Test system: HeLa cervix carcinoma cells
Assay: growth curves of superTk1 stable transfectant HeLa clone 117 with dTh, 5-FU or AraC +/- doxycyclin

| SMILES | amount still giving significant inhibition relative to amount used in the literature (5 μM (0.65 μg/ml) versus 55.44 μg/ml) | fraction of standard dTh concentration sufficient for S-phase block (superTk1 expressing HeLa, 0.1 mM dTh) |
| --- | --- | --- |
| O=c1[nH]cc(F)c(=O)[nH]1 [5-FU, 5-fluorouracil] | 1/85 | – |
| Cc1cn([C@H]2C[C@H](O)[C@@H](CO)O2)c(=O)[nH]c1=O [dTh, deoxythymidine] | – | 1/50 |
